The results in this text go back to PubChem BioAssay AID256 (DTP/NCI, 2004).

The list shows only some results of the screen, not a fair sample: it gathers tests that were run many times, whatever their T/C, doses with no T/C, and many T/C values between a quarter and a half above the control. Further doses and runs are listed elsewhere. T/C: endpoint of the treated group in % of that of the vehicle group. Some doses have a count of surviving animals in place of a T/C: the source files T/C as zero there, which appears to mark a toxic dose or a test without result, not a measured value. Some doses without a T/C left all or most animals alive at the check, yet need not have been tolerated: the source hardly ever lists a survival T/C far under the control, and the zero likely stands for such cases as well. Survivors were counted at the toxicity check, usually on the fifth day, unless a day is given; later deaths do not show. Schedules are NCI's codes, taken here to give the interval after Q, in days (D) or hours (H), and the number of doses after X. Some entries were tested several times; the values are given in rising order. For survival time, this PubChem deposit counts one and a half times the control or more as active, and values a quarter to a half above the control carry no call in these data; other NCI protocols may use other cut-offs. Some T/C values are followed by the survivors on the day toxicity was checked, most often the fifth; without a count, all were alive then.

The experiment concerns CD2F1 mice, L1210 leukemia ip, survival T/C. The experiment can be described thus: NCI In Vivo Anticancer Drug Screen. Data for tumor model L1210 Leukemia (intraperitoneal) in CD2F1 (CDF1) mice. Particulars: higher T/C = longer survival. The gist of the method: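 Tumor-bearing mice (transplanted tumor) were split into treated and vehicle control groups, and the measured endpoint of each treated group was divided by that of its vehicle controls.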

Setting [1] is: T/C endpoint: mean survival time, dose: 50.0 mg/kg/injection, schedule: Q04DX003 (ip), vehicle: saline with Tween-80.
[2] abbreviates: T/C endpoint: mean survival time, dose: 200.0 mg/kg/injection, schedule: Q04DX003 (ip), vehicle: saline with Tween-80.
Where [3] appears, read: T/C endpoint: mean survival time, dose: 100.0 mg/kg/injection, schedule: Q04DX003 (ip), vehicle: saline with Tween-80.
Where [4] appears, read: T/C endpoint: mean survival time, dose: 400.0 mg/kg/injection, schedule: Q04DX003 (ip), vehicle: saline with Tween-80.
The mark [5] stands for this setting: T/C endpoint: mean survival time, dose: 50.0 mg/kg/injection, schedule: Q01DX009 (ip), vehicle: saline with Tween-80.
The mark [6] stands for this setting: T/C endpoint: mean survival time, dose: 75.0 mg/kg/injection, schedule: Q01DX009 (ip), vehicle: saline with Tween-80.
Setting [7] is: T/C endpoint: mean survival time, dose: 100.0 mg/kg/injection, schedule: Q01DX009 (ip), vehicle: saline with Tween-80.
[8] abbreviates: T/C endpoint: mean survival time, dose: 400.0 mg/kg/injection, schedule: Q04DX003 (ip), vehicle: saline.

Take `CS(=O)(=O)CC#N`: the survivor count is 2 of 6 and 2 of 3 (T/C endpoint: mean survival time, dose: 50.0 mg/kg/injection, schedule: Q01DX009 (ip), vehicle: saline); 1 of 3 (T/C endpoint: mean survival time, dose: 50.0 mg/kg/injection, schedule: Q04DX002 (ip), vehicle: saline); 4 of 6 under setting [1]; 4 of 6 (T/C endpoint: mean survival time, dose: 100.0 mg/kg/injection, schedule: Q04DX002 (ip), vehicle: saline with Tween-80); 0 of 3 and 0 of 6 (T/C endpoint: mean survival time, dose: 100.0 mg/kg/injection, schedule: Q04DX002 (ip), vehicle: saline); 0 of 6 (T/C endpoint: mean survival time, dose: 200.0 mg/kg/injection, schedule: Q04DX002 (ip), vehicle: saline with Tween-80). In addition, the survivor count (T/C endpoint: mean survival time, dose: 400.0 mg/kg/injection, schedule: Q04DX002 (ip), vehicle: saline with Tween-80) is given as 0 of 6.
For `Cc1csc2nc(-c3ccccc3)[nH]c(=S)c12`, the survivor count under setting [2] is 6 of 6.
On to `COC(=O)CCC(=O)c1cccc(C)c1`, for which the survivor count (T/C endpoint: mean survival time, dose: 100.0 mg/kg/injection, schedule: Q04DX003 (ip), vehicle: acetone) is listed as 6 of 6.
`COC1=CC(=O)C(C2CC(=O)c3c(O)cc(O)cc3O2)=CC1=O` (stereo not drawn): the survivor count runs as follows: (T/C endpoint: mean survival time, dose: 200.0 mg/kg/injection, schedule: Q01DX009 (ip), vehicle: saline with Tween-80) 2 of 6; (T/C endpoint: mean survival time, dose: 400.0 mg/kg/injection, schedule: Q01DX009 (ip), vehicle: saline with Tween-80) 1 of 6.
On to `O=C(O)c1cc(N2CCCCC2)ccn1`, for which the survivor count (T/C endpoint: mean survival time, dose: 400.0 mg/kg/injection, schedule: Q01DX001 (ip), vehicle: saline) was 0 of 6.
As to `COC1OC(OC)[CH]([Hg][Cl])C1OC` (stereo not drawn), the survivor count runs as follows: under setting [3], 1 of 6; under setting [2], 0 of 6; under setting [4], 0 of 6.
With `NC(=S)N/N=C\c1nccc2c(N)cccc12`, the T/C reads like this: (T/C endpoint: mean survival time, dose: 6.25 mg/kg/injection, schedule: Q01DX009 (ip), vehicle: saline with Tween-80, evaluated on day 30) 142 % of control; (T/C endpoint: mean survival time, dose: 6.25 mg/kg/injection, schedule: Q01DX009 (ip), vehicle: saline with Tween-80, evaluated on day 60) 137 % of control; (T/C endpoint: mean survival time, dose: 9.4 mg/kg/injection, schedule: Q01DX009 (ip), vehicle: saline with Tween-80) 126 % of control; (T/C endpoint: mean survival time, dose: 12.5 mg/kg/injection, schedule: Q01DX009 (ip), vehicle: saline with Tween-80) 145 % of control; (T/C endpoint: mean survival time, dose: 18.8 mg/kg/injection, schedule: Q01DX009 (ip), vehicle: saline with Tween-80) 132 % of control; (T/C endpoint: mean survival time, dose: 25.0 mg/kg/injection, schedule: Q01DX009 (ip), vehicle: saline with Tween-80) 134 % of control [5 of 6 alive]. Also, the T/C (T/C endpoint: mean survival time, dose: 37.5 mg/kg/injection, schedule: Q01DX009 (ip), vehicle: saline with Tween-80) is 143 % of control. The survivor count was 6 of 6 under setting [5]; 6 of 6 under setting [6]; 4 of 6 (T/C endpoint: mean survival time, dose: 150.0 mg/kg/injection, schedule: Q01DX009 (ip), vehicle: saline with Tween-80).
Consider `CC(C)(C)CC(C)(C)SSc1n[nH]c(=S)s1`, for which the survivor count is, setting by setting: (T/C endpoint: mean survival time, dose: 20.0 mg/kg/injection, schedule: Q04DX003 (ip), vehicle: Klucel (hydroxypropylcellulose) (HPC)) 4 of 6; (T/C endpoint: mean survival time, dose: 40.0 mg/kg/injection, schedule: Q04DX003 (ip), vehicle: Klucel (hydroxypropylcellulose) (HPC)) 0 of 6; (T/C endpoint: mean survival time, dose: 100.0 mg/kg/injection, schedule: Q04DX003 (ip), vehicle: Klucel (hydroxypropylcellulose) (HPC)) 0 of 6; (T/C endpoint: mean survival time, dose: 200.0 mg/kg/injection, schedule: Q04DX003 (ip), vehicle: Klucel (hydroxypropylcellulose) (HPC)) 0 of 6; (T/C endpoint: mean survival time, dose: 400.0 mg/kg/injection, schedule: Q04DX003 (ip), vehicle: Klucel (hydroxypropylcellulose) (HPC)) 0 of 6.
For the molecule `NCCc1cc(O)c(O)cc1O`, the survivor count (T/C endpoint: mean survival time, dose: 200.0 mg/kg/injection, schedule: Q01DX009 (ip), vehicle: saline) is listed as 1 of 3.
Regarding `O=C(O)CCC1(CCC(=O)O)OCCO1.[Ag]`, the survivor count under setting [6] is reported as 0 of 6.
As to `CC1=CC(=O)C(C(C)C)=CC1=O`, the survivor count reads like this: under setting [7], 3 of 6; under setting [2], 4 of 6; under setting [4], 3 of 6.
On to `CNNCCCC(=O)NC(C)C`, for which the survivor count under setting [8] is listed as 3 of 6.
Take `CC(C)C(=O)[O][Sn]([CH2]c1ccccc1)([CH2]c1ccccc1)[CH2]c1ccccc1`: under setting [7], the survivor count is recorded as 6 of 6.
For `O=C1CC(=O)C(Br)=C1Br`, the survivor count is 3 of 6 (T/C endpoint: mean survival time, dose: 12.5 mg/kg/injection, schedule: Q04DX003 (ip), vehicle: saline with Tween-80); 1 of 6 (T/C endpoint: mean survival time, dose: 25.0 mg/kg/injection, schedule: Q04DX003 (ip), vehicle: saline with Tween-80); 0 of 6 under setting [1].
Turning to `COc1ccc2[nH]cc(CN(C)C)c2c1`, under setting [5], the T/C was 128 % of control. Besides, the survivor count under setting [6] is given as 0 of 6, the survivor count under setting [2] is 1 of 6 and the survivor count under setting [4] is reported as 0 of 6.
In the case of `O=C(O)CC(CC(=O)O)C(=O)O.[NH-]C1CCCCC1[NH-].[Pt+2]`, the T/C (T/C endpoint: median survival time, dose: 200.0 mg/kg/injection, schedule: Q04DX003 (ip), vehicle: saline) is 137 % of control.
On to `CC(/C=C/c1ccccc1)=Nc1ccccc1`, for which, where the note is “T/C endpoint: median survival time, dose: 400.0 mg/kg/injection, schedule: Q01DX009 (ip), vehicle: saline with Tween-80”, the survivor count is 0 of 6.
For the molecule `O=S(=O)(O)O.[NH-]C1CCCCC1C1CCCCC1[NH-].[Pt+2]` (stereo not drawn), the T/C was 133 % of control (T/C endpoint: mean survival time, dose: 6.25 mg/kg/injection, schedule: Q04DX003 (ip), vehicle: distilled water + Tween-80); 147 % of control (T/C endpoint: mean survival time, dose: 25.0 mg/kg/injection, schedule: Q04DX003 (ip), vehicle: distilled water + Tween-80); 144 % of control [5 of 6 alive] (T/C endpoint: mean survival time, dose: 50.0 mg/kg/injection, schedule: Q04DX003 (ip), vehicle: distilled water + Tween-80).
On to `O=C1OC(c2ccccc2)(c2ccccc2)c2cccc3cccc1c23`, for which the survivor count under setting [2] is recorded as 6 of 6.
With `CCCCCCCCCCCCCCCC(=O)N(CCCCN(CCCN(C)C)C(=O)CCCCCCCCCCCCCCC)CCCN(C)C`, the survivor count under setting [7] is given as 0 of 6.
With `CC1=C[S+](c2ccccc2)c2cccc3cc4ccccc4c1c23` (stereo not drawn), the survivor count by setting is: (T/C endpoint: mean survival time, dose: 20.0 mg/kg/injection, schedule: Q01DX001 (ip), vehicle: saline with Tween-80) 1 of 6; (T/C endpoint: mean survival time, dose: 100.0 mg/kg/injection, schedule: Q01DX001 (ip), vehicle: saline with Tween-80) 0 of 6; (T/C endpoint: mean survival time, dose: 200.0 mg/kg/injection, schedule: Q01DX001 (ip), vehicle: saline with Tween-80) 0 of 6; (T/C endpoint: mean survival time, dose: 400.0 mg/kg/injection, schedule: Q01DX001 (ip), vehicle: saline with Tween-80) 0 of 6.
`CC1(C)N=C(N)N=C(N)N1c1ccc(CCCCc2cccc(S(=O)(=O)F)c2)c(Cl)c1`: the survivor count by setting is: (T/C endpoint: mean survival time, dose: 40.0 mg/kg/injection, schedule: Q01DX009 (ip), vehicle: saline with Tween-80) 3 of 6; under setting [3], 0 of 6; under setting [2], 0 of 6; under setting [4], 0 of 6.
`c1cc[c]([Pb]([c]2ccccc2)([c]2ccccc2)[n]2cccc2)cc1`: the survivor count was 0 of 6 (T/C endpoint: mean survival time, dose: 25.0 mg/kg/injection, schedule: Q01DX009 (ip), vehicle: acetone) and 4 of 6 (T/C endpoint: mean survival time, dose: 50.0 mg/kg/injection, schedule: Q04DX003 (ip), vehicle: acetone).
On to `O=C(Nc1ccc(Cl)c(Cl)c1)Sc1ccc(Cl)cc1`, for which the survivor count runs as follows: under setting [2], 1 of 6; under setting [4], 0 of 6.
With `O=C(C=C(C(F)(F)F)C(F)(F)F)c1ccco1`, the survivor count is recorded as 6 of 6 under setting [3], 0 of 6 under setting [2] and 0 of 6 under setting [4].
As for `CS(C)=O.CS(C)=O.[Cl][Rh]([Cl])([Cl])[Cl]`, the survivor count (T/C endpoint: mean survival time, dose: 200.0 mg/kg/injection, schedule: Q04DX003 (ip), vehicle: saline) is on record as 0 of 6 and the survivor count under setting [8] is reported as 0 of 6.
